The other results are listed elsewhere or left out. Most values lie at the level of the controls, where differences are scatter.

The chains behind the UniProt entries cited, without tags or fusion partners. Where a name states a change or a piece, a line headed by the entry shows the natural chain unless it says otherwise.
UniProt Q80U63: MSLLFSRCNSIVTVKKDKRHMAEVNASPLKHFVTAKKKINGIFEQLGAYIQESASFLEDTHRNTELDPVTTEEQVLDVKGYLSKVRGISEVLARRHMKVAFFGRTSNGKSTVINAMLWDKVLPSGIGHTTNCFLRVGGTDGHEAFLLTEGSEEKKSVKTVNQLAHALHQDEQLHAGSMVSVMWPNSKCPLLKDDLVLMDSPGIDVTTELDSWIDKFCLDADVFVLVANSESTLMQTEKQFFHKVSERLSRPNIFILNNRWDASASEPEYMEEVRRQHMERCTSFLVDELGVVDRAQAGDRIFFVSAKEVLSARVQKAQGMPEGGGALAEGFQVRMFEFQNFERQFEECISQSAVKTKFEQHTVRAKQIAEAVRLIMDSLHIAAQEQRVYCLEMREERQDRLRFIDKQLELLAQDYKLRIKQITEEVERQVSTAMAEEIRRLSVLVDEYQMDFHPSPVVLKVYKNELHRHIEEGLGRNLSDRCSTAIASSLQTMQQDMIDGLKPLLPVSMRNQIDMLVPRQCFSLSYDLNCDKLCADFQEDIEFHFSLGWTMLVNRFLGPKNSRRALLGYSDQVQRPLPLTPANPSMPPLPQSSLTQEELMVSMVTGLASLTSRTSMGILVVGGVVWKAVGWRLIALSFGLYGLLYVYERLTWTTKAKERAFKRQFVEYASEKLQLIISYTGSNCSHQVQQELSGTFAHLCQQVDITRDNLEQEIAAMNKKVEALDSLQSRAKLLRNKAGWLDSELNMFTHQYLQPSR
UniProt Q8BGA8: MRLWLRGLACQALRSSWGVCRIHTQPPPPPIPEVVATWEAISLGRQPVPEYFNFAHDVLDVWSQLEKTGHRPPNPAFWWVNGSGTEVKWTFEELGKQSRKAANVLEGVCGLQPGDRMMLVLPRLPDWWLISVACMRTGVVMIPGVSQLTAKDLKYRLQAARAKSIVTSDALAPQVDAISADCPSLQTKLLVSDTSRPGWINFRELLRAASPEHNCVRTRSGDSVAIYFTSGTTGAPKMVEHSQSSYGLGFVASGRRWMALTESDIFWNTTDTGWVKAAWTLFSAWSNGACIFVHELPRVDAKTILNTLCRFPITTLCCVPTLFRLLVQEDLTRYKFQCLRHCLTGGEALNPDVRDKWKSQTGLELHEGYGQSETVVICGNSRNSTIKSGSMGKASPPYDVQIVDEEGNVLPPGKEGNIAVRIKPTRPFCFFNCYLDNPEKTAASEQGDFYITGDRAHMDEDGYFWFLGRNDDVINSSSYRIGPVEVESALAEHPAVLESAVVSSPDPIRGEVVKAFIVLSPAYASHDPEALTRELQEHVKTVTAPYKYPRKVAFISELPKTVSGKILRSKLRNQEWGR
UniProt Q7TMW6: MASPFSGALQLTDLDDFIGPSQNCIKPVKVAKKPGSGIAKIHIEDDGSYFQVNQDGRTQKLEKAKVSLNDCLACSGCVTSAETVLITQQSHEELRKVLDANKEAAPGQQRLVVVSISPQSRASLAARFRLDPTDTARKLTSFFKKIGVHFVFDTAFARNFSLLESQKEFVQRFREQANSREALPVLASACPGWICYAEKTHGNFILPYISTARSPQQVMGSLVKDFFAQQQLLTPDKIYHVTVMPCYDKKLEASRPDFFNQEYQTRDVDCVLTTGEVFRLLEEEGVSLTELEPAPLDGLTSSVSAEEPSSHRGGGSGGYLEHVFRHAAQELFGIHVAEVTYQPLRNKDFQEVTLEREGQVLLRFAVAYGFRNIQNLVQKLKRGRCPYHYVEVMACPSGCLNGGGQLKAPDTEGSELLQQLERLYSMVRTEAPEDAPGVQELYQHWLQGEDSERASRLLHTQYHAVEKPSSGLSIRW
UniProt Q80TZ9: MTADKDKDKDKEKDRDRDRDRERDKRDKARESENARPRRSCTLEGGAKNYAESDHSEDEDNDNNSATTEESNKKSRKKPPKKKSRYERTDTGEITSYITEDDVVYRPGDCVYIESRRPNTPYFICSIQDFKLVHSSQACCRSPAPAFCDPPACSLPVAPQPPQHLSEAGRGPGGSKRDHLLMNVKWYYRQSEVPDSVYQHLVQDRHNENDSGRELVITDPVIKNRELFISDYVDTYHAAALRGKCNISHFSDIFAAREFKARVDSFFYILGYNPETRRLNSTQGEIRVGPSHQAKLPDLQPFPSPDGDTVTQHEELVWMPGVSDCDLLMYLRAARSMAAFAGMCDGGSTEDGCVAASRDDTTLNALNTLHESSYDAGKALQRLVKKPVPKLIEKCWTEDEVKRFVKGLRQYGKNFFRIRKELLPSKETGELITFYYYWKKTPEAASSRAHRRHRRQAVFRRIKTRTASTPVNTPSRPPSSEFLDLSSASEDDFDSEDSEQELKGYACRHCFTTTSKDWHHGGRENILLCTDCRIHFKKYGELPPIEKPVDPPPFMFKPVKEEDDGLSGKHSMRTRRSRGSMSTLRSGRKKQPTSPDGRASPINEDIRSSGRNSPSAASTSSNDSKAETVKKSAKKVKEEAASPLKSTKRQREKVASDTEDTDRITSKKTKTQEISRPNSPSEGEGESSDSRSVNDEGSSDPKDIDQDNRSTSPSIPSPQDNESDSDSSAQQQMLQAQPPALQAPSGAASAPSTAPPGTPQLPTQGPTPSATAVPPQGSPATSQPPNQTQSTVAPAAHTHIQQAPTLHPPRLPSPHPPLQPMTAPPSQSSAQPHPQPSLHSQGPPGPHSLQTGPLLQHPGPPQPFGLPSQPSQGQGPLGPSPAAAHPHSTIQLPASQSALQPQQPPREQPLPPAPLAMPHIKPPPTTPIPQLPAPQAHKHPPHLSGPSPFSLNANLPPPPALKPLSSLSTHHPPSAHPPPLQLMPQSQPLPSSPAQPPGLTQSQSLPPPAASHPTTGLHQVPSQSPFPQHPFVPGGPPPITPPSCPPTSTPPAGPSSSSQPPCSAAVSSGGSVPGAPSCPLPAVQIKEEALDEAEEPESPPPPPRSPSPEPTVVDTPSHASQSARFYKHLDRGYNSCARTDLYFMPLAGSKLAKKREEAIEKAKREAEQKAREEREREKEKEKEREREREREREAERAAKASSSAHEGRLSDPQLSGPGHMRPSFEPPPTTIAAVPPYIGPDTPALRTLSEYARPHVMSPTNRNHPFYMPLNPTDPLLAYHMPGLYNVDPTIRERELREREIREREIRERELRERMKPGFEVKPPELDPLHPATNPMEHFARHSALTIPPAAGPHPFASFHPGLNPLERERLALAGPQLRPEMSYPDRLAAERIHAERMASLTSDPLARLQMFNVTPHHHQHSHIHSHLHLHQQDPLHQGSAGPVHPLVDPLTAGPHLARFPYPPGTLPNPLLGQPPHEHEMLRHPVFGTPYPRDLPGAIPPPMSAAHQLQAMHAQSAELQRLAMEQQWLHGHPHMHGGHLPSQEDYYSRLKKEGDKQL
UniProt Q6PAL7: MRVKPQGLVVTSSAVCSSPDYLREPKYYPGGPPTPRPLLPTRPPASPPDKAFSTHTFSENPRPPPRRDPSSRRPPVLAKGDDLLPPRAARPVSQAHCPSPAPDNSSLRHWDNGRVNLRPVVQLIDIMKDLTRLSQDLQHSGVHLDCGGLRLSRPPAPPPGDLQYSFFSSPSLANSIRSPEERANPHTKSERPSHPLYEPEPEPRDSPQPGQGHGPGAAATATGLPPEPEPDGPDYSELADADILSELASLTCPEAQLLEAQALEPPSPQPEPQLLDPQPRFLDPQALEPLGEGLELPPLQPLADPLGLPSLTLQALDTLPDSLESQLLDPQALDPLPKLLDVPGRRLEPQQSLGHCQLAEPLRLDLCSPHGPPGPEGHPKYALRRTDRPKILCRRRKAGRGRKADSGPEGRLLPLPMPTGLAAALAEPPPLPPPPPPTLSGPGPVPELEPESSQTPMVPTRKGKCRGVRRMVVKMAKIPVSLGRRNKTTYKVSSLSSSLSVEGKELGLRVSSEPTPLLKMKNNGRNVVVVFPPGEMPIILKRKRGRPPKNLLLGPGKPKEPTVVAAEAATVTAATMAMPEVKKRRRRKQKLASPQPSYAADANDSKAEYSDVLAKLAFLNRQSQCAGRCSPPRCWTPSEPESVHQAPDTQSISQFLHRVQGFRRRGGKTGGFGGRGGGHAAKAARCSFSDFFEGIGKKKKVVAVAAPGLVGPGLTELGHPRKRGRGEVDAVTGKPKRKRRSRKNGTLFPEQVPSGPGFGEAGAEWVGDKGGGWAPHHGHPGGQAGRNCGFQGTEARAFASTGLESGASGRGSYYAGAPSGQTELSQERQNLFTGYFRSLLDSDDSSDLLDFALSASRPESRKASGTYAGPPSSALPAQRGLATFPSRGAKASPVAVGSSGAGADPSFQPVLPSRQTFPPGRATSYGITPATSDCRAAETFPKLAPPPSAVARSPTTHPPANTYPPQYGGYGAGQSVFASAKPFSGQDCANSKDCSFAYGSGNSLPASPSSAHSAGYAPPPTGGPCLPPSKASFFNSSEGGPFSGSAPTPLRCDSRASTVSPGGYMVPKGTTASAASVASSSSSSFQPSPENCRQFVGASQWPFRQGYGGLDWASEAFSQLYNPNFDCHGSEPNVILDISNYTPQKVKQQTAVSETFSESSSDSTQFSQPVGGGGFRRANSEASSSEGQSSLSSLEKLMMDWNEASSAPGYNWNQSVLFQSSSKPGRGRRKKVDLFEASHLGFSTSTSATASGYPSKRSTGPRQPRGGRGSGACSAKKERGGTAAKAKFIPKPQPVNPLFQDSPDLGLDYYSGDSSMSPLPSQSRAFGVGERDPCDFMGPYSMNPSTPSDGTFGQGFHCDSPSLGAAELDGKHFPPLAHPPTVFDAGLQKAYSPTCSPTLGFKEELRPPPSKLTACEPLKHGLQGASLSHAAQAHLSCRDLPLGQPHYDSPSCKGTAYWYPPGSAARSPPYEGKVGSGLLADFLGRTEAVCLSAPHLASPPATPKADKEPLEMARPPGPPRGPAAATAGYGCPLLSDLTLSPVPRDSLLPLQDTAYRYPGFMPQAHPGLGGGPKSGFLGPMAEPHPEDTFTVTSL
UniProt Q6P3A8: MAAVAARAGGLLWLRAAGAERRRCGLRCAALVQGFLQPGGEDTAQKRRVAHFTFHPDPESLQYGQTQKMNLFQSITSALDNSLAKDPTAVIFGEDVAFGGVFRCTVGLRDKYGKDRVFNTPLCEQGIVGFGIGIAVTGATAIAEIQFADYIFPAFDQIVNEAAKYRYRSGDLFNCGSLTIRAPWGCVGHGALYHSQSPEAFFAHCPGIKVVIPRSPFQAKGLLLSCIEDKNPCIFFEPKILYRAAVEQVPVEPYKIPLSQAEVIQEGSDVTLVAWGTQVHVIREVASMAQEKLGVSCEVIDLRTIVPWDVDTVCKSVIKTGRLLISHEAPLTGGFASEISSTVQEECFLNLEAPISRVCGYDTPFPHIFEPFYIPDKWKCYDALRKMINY
UniProt Q7TMF3, whole entry: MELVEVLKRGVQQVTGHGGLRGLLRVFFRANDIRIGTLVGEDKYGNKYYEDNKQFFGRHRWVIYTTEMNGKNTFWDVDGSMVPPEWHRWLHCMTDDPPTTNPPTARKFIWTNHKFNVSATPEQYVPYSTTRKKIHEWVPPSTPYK
UniProt Q791T5, whole entry: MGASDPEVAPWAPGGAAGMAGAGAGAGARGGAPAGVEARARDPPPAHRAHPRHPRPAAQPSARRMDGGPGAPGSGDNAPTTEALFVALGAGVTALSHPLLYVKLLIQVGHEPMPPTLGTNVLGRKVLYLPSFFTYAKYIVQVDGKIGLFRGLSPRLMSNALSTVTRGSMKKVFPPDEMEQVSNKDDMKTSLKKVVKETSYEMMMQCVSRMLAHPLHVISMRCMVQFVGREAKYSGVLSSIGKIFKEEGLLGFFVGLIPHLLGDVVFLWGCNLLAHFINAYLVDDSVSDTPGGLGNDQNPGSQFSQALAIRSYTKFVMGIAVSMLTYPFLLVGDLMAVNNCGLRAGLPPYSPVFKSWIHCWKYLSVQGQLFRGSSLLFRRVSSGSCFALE
UniProt Q6PGH2: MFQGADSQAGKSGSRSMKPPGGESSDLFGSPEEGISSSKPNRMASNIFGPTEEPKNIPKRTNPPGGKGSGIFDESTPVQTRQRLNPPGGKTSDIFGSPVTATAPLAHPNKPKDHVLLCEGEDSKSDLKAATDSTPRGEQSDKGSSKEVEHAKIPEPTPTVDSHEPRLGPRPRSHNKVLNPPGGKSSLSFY
UniProt Q7TPD2: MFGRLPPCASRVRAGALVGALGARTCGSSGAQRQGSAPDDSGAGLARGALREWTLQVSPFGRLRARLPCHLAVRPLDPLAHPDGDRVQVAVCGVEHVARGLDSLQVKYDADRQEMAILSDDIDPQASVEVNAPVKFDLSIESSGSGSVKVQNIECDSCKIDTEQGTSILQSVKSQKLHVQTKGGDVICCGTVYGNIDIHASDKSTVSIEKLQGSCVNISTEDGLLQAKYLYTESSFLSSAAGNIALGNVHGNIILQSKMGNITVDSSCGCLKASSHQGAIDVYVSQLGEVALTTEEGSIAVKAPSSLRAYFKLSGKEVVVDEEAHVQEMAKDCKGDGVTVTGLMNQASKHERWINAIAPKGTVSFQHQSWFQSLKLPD

Compound in the assay: CN[C@@H]1C[C@H]2O[C@@](C)([C@@H]1OC)n1c3ccccc3c3c4c(c5c6ccccc6n2c5c31)C(=O)NC4 [staurosporine]
Kind of assay: log2 fold change of pooled soluble protein (PISA), ligand vs vehicle (log2 ratio); higher = more thermally stabilized. As to conditions: ligand concentration: 20 uM; assay format: PISA pool 52.9/55.5/58.6 C.
Take UniProt Q80U63: the “log2 fold change of pooled soluble protein” value (“log2 fold change” below) is 0.54.

For the target UniProt Q6ZQK5, the “log2 fold change” value is 0.186.

Regarding UniProt Q6Y7W8, the “log2 fold change” value is -0.198.

Consider UniProt Q8BGA8, for which the “log2 fold change” value was -0.0599.

As for UniProt Q7TPQ3, the “log2 fold change” value turned out to be 0.00988.

In the case of UniProt Q810A7, the “log2 fold change” value is 0.122.

On to UniProt Q810B6, for which the “log2 fold change” value was determined as 0.156.

With UniProt Q7TMW6, the “log2 fold change” value was -0.121.

With UniProt Q7TNG5, the “log2 fold change” value was 0.0932.

Consider UniProt Q80VD1, for which the “log2 fold change” value amounted to 0.143.

Regarding UniProt Q80U04, the “log2 fold change” value is -0.189.

Turning to UniProt Q80W00, the “log2 fold change” value came to 0.0214.

With UniProt Q7TQD2, the “log2 fold change” value was 0.0861.

Take UniProt Q80XI4: the “log2 fold change” value was -0.0567.

Regarding UniProt Q80TZ9, the “log2 fold change” value was -0.155.

On to UniProt Q80V26, for which the “log2 fold change” value was 0.362.

In the case of UniProt Q6PAL7, the “log2 fold change” value is -0.102.

UniProt Q6RHR9: the “log2 fold change” value was -0.00569.

On to UniProt Q6P3A8, for which the “log2 fold change” value is -0.0356.

Regarding UniProt Q6PD21, the “log2 fold change” value was determined as 0.262.

UniProt Q80U49: the “log2 fold change” value is -0.151.

On to UniProt Q7TMF3, for which the “log2 fold change” value came to 0.0127.

As for UniProt Q6NZB0, the “log2 fold change” value was -0.0732.

Take UniProt Q8BG15: the “log2 fold change” value came out at 0.0336.

UniProt Q7TPE5: the “log2 fold change” value stood at 0.107.

As to UniProt Q80Y14, the “log2 fold change” value was determined as 0.335.

Consider UniProt Q791T5, for which the “log2 fold change” value was 0.0698.

In the case of UniProt Q811D0, the “log2 fold change” value was -0.00921.

Take UniProt Q6PR54: the “log2 fold change” value was determined as 0.0108.

Take UniProt Q6PGH2: the “log2 fold change” value was -0.0445.

Regarding Q80T19;Q9EQ21, the “log2 fold change” value amounted to 0.272.

Regarding UniProt Q80UY1, the “log2 fold change” value was 0.0635.

For the target UniProt Q7TPD2, the “log2 fold change” value was -0.0239.

As for UniProt Q80XN0, the “log2 fold change” value is -0.0376.

In the case of UniProt Q6ZQ08, the “log2 fold change” value was found to be 0.0132.

Take UniProt Q6NZC7: the “log2 fold change” value was 0.033.
